Measurements: publication PMC10767445
These are yes or no findings as the source states them, for the method shown. In cells and extracts the contact can be indirect. Some binding calls cover weakened binding; strength is not graded here.

The chains behind the UniProt entries cited, without tags or fusion partners.
UniProt Q9Y6M1: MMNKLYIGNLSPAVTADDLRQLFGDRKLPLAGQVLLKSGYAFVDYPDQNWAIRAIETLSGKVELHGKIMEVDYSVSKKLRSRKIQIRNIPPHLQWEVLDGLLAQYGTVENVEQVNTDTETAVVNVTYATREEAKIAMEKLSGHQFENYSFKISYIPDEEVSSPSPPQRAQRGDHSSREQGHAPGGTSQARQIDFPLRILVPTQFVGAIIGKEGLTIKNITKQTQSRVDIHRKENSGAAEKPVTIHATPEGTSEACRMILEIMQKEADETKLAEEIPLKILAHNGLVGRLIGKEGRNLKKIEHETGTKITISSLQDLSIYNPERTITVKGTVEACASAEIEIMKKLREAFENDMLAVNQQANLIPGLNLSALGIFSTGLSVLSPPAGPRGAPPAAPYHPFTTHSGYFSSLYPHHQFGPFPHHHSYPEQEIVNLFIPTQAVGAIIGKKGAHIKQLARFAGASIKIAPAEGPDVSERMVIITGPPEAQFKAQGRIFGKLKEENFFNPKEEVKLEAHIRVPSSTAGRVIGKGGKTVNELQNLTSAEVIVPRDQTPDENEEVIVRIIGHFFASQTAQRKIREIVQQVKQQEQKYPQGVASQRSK
UniProt P60842: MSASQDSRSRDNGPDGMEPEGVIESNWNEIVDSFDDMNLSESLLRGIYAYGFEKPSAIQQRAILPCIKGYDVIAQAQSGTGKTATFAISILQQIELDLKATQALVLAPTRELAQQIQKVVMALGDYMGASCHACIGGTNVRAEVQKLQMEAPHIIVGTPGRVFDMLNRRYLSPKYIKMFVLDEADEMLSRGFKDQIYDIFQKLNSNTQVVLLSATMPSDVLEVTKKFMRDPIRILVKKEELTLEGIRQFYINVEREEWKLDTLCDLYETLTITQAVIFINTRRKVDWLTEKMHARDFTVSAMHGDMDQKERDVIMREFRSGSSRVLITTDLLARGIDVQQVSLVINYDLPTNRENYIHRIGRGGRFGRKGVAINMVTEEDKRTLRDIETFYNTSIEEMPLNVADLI

Target: IGF2BP2 (human (endogenous in MDA-MB-231 and HCC-1806)) (UniProt Q9Y6M1)
Experiment: co-IP; endogenous proteins in MDA-MB-231 and HCC-1806 lysates; lysis buffer 50 mM Tris-HCl pH 7.5, 150 mM NaCl, 15 mM MgCl2, 5 mM EDTA, 0.1% NP-40; antibody on Protein A/G magnetic beads, 4 °C overnight; western blot

binding: binds
Substance: EIF4A1 (from UniProt P60842 1-406)
